Assay results published in patent US9518979B2, “Assay to evaluate drug metabolism” (priority 2015, dated 2016).

Test system: cryopreserved human hepatocytes
Conditions: each incubation a 24 hour period; single donors or pooled donors; FIGS. 4 and 5

CN1C(=O)CN=C(c2ccccc2)c2cc(Cl)ccc21 [diazepam]
percent parent compound remaining versus incubation time: time dependent disappearance
